Assay results reported in publication PMC11115362.

Key:
[1] = test system: E75 DNA-binding domain (rE75) (kuruma shrimp); assay: competition with a labelled probe; conditions: excess unlabeled probe; EMSA: 2 ug rE75, 5 ng biotin probe, 25 C, 20 min, kit binding buffer (Beyotime GS009; composition and pH not given); 6% acrylamide gel, 0.5x TBE; recombinant protein; protein details: 6xHis and pET32a vector tag (rTag); label: biotin (unlabeled as competitor)
[2] = test system: E75 DNA-binding domain (rE75) (kuruma shrimp); assay: EMSA; conditions: 2 ug protein, 5 ng probe; EMSA: 2 ug rE75, 5 ng biotin probe, 25 C, 20 min, kit binding buffer (Beyotime GS009; composition and pH not given); 6% acrylamide gel, 0.5x TBE; recombinant protein; protein details: 6xHis and pET32a vector tag (rTag); label: biotin (unlabeled as competitor)

“TGAAGGAAGAGGGGCAGTAAGTAAGTTGGGGCAGG (double strand) [Chi2 promoter E75-site probe, wild type]”: binds [1]; binds [2].

The exact form of at least one protein or probe is not confirmed. For some assays here: At least one verdict was read from the data and is not stated in words by the source.
